Assay results: PubChem BioAssay AID720504 (National Center for Advancing Translational Sciences (NCATS), 2013)
Among all 360,000 compounds or so, about 10,000 (2.8%) were called active. Inconclusive means that the source gave no clear call. Such entries were picked first, then a sample of the others. Calls follow the shape of the dose curve; as a rule, active = well fitted inhibition curve with a large enough effect; inconclusive = small, poorly fitted or top-dose-only effect; inactive = flat fitted curve, though single readings scatter. A potency beside an inconclusive call is a rough fit, not a confirmed value.

Amino acid sequences for entries named in this document (tags omitted).
UniProt P53350, whole entry, looked up: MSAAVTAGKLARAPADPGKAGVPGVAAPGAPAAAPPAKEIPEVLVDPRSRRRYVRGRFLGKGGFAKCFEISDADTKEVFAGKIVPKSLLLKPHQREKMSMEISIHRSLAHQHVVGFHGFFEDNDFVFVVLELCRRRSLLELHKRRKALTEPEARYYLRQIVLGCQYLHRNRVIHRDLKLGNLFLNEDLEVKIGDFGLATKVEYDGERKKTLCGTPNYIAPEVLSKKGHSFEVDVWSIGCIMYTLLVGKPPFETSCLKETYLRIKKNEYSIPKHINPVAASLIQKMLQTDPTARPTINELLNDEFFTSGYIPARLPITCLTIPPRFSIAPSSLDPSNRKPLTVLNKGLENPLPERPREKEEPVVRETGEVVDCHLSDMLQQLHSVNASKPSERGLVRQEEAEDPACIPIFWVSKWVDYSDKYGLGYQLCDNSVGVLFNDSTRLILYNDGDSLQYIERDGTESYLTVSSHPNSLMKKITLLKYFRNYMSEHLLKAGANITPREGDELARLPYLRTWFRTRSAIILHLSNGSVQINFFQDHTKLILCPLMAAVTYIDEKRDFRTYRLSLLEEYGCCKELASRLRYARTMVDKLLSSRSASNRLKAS

molecular target: Serine/threonine-protein kinase PLK1 (Homo sapiens) (UniProt P53350); test: qHTS for Inhibitors of PLK1-PDB (polo-like kinase 1 - polo-box domain): Primary Screen; conditions: Plk1 PBD binding of FITC phosphopeptide, fluorescence polarization; also: nearly all actives have a fitted effect of over 65% in size; as to max response, negative = inhibition: series mostly up to about 57 µM
% is scaled to controls: 0 for no effect and ±100 for the full control effect; potency is read from the fitted curve at half-maximal effect.

SMILES | Potency | max response, negative = inhibition
Cc1nc2ccc([N+](=O)[O-])cc2c(=O)n1Cc1ccc(F)cc1 | inconclusive: 26.7 µM [inhibitor, single point] | –
CCOC(=O)c1c(NC(=O)C2Cc3ccccc3C(=O)O2)sc2c1CCCC2 (stereo not given) | – | inactive: -8.32%
O=[N+]([O-])c1ccc(S(=O)(=O)N/N=C/c2ccc3c(c2)OCO3)cc1 | – | inactive: -14.6%
Cc1ccc(/C=c2\sc3n(c2=O)CN(c2ccc(Br)cc2)CN=3)o1 | inconclusive: 26.7 µM [inhibitor, partial curve] | –
Cc1nc(NCc2cccnc2)c2c3c(sc2n1)CC(C)CC3 (stereo not given) | inconclusive: 23.8 µM [inhibitor, partial curve] | –
O=C(O)/C(CC(=O)c1ccc(Cl)cc1)=N/Nc1ccc([N+](=O)[O-])cc1[N+](=O)[O-] | active: 23.8 µM | –
CCn1c(N)c(C(N)=O)sc1=S | active: 26.7 µM | –
CCCC(=O)Nc1nnc(-c2ccc3c(c2)OCO3)s1 | – | inactive: 0.189%
CCc1ccc(Nc2nnc(SCC(=O)Nc3cccc(S(=O)(=O)NC4=NCCCCC4)c3)s2)cc1 | – | inactive: -7.08%
Cc1cccc2sc(N(CCCN(C)C)C(=O)CCS(=O)(=O)c3ccccc3)nc12 | inconclusive: 3.36 µM [inhibitor, full curve, poor fit] | –
Cc1ccc(S(=O)(=O)/N=C(/Sc2ccccc2C(=O)O)c2ccccc2)cc1 | active: 18.9 µM | –
Nc1cc(N)nc(SCC(=O)NCc2ccc3c(c2)OCO3)n1 | active: 5.97 µM | –
COc1ccc(/C=C2/C(=O)N(c3c(F)c(F)c(F)c(F)c3F)N=C2C)cc1 | active: 6.7 µM | –
O=C(NCc1ccccc1)c1ccc2c(=O)[nH]c3c(C(=O)NCC4CCCO4)sc(=S)n3c2c1 (stereo not given) | inconclusive: 23.8 µM [inhibitor, single point] | –
CC1=NN(c2ccccc2C(=O)O)C(=O)C1N=Nc1ccccc1 (stereo not given) | inconclusive: 29.9 µM [inhibitor, partial curve] | –
CC(=O)Nc1ccc(C2=NN(c3ccccc3)C(c3ccccc3)C2)cc1 (stereo not given) | inconclusive: 29.9 µM [inhibitor, single point] | –
O=C(N/N=C/c1ccc(O)cc1)c1cc(-c2ccc3c(c2)OCO3)n[nH]1 | – | inactive: -8.78%
Cc1ccc(CN(C(=O)C(F)(F)F)C(C(=O)NC2CCCCC2)c2ccco2)cc1 (stereo not given) | inconclusive: 29.9 µM [inhibitor, single point] | –
CCn1c(SCc2cccc(C(F)(F)F)c2)nnc1-c1ccco1 | – | inconclusive: -30.3% [inhibitor]
CC1=C(C#N)C(Nc2cccc(C)n2)(C(F)(F)F)C(=O)N1 (stereo not given) | – | inactive: -3.83%
O=C(OCC(=O)c1ccc[nH]1)c1ccc(F)c(S(=O)(=O)N2CCOCC2)c1 | – | inactive: -13.5%
O=C(CCS(=O)(=O)c1ccc(Br)cc1)Nc1ccc2c(c1)OCO2 | inconclusive: 28.2 µM [inhibitor, partial curve] | –
COc1ccccc1C1(CC(=O)N2CCOCC2)CCOC(C(C)C)C1 (stereo not given) | inconclusive: 29.9 µM [inhibitor, partial curve] | –
CCOc1cc(CN2CCC(N3CCC(C(=O)NC4CC4)CC3)CC2)ccc1O | – | inactive: -0.503%

Some of the entries so far, in markdown.

| SMILES | Potency | max response, negative = inhibition |
| --- | --- | --- |
| CCn1c(N)c(C(N)=O)sc1=S | active: 26.7 µM | – |
| O=C(OCC(=O)c1ccc[nH]1)c1ccc(F)c(S(=O)(=O)N2CCOCC2)c1 | – | inactive: -13.5% |

Additional records:

SMILES | Potency | max response, negative = inhibition
C[C@@H](NC(=O)[C@@H]1Cc2ccccc2CN1C(=O)OC(C)(C)C)C(=O)NC1CCCC1 | active: 29.9 µM | –
Nc1nc2ncc(C(=O)c3cc(Cl)cc(Cl)c3O)cc2s1 | inconclusive: 21.2 µM [inhibitor, partial curve] | –
COc1cccc2c(C)nc(Nc3nc(CSc4nnc(C)s4)cc(=O)[nH]3)nc12 | active: 23.8 µM | –
O=C(Nc1ccc(Cc2ccc(NC(=O)C3CC3)c(O)c2)cc1O)C1CC1 | – | inactive: -2.2%
Cc1cccc(NC(=O)CNC(=O)CCc2nc3sc4c(c3c(=O)[nH]2)CCCC4)c1C | inconclusive: 29.9 µM [inhibitor, partial curve, poor fit] | –
COc1cccc(C2c3[nH]c4ccccc4c3C[C@H]3C(=O)N(c4ccccc4C(=O)N4CCCC4C(=O)O)C(=O)N23)c1 (stereo not given in full) | inconclusive: 75.2 µM [inhibitor, partial curve] | –
c1ccc2c(c1)OCC(c1nnc3sc(-c4cnccn4)nn13)O2 (stereo not given) | active: 28.2 µM | –
COC(=O)c1[nH]c2ccc(Br)cc2c1NC(=O)Oc1ccccc1 | inconclusive: 15 µM [inhibitor, partial curve] | –
CSc1nc(-c2ccco2)nn1C(=O)c1ccc(C)cc1 | inconclusive: 6.7 µM [inhibitor, partial curve] | –
CCN(CC)C(=O)Cn1cc(C(=O)C(=O)NCCc2ccc(S(N)(=O)=O)cc2)c2ccccc21 | inconclusive: 10.6 µM [inhibitor, partial curve] | –
O=C(N/N=C/c1ccc(O)c([N+](=O)[O-])c1)C1CC1(c1ccccc1)c1ccccc1 (stereo not given) | – | inconclusive: -31.3% [inhibitor]
C=CCNC(=S)N1CCN(c2ncc(C(F)(F)F)cc2Cl)CC1 | – | inactive: -9.45%
O=C(CCCN1C(=O)/C(=C\c2cccc(Br)c2)SC1=S)Nc1ccc(C(=O)O)cc1 | inconclusive: 33.6 µM [inhibitor, partial curve] | –
O=C(O)c1ccc(CSCc2ccccc2F)o1 | inconclusive: 8.44 µM [inhibitor, partial curve] | –
O=C(Nc1nc(-c2cccs2)cs1)C1=COCCO1 | active: 3.36 µM | –
O=S(=O)(Nc1nc2ccccc2nc1OCC(F)(F)F)c1cccs1 | inconclusive: 26.7 µM [inhibitor, single point] | –
Cc1cccc(-c2noc(CNC(=O)c3ccoc3C)n2)c1 | inconclusive: 18.9 µM [inhibitor, partial curve] | –
C[C@@H](CSc1ccc(Br)cc1)CN1CC[C@H](O)CCC1=O | – | inactive: -15.9%
CN1C(=O)C(C)(C)c2cc(S(=O)(=O)N3CCN(c4cccc(Cl)c4)CC3)ccc21 | inconclusive: 37.7 µM [inhibitor, single point] | –
NC(=O)Nc1ccc(Oc2ncc(C(F)(F)F)cc2Cl)cc1 | inconclusive: 23.8 µM [inhibitor, single point] | –
c1ccc(Cn2c(SCc3nc4ccccc4s3)nnc2-c2ccco2)cc1 | active: 21.2 µM | –
Cn1c(=O)n(C)c2cc(/C=C(/C#N)C(=O)NCc3ccco3)ccc21 | inconclusive: 23.8 µM [inhibitor, single point] | –
Cc1ccc(C(=O)c2no[n+]([O-])c2C(=O)c2ccc(C)cc2)cc1 | inconclusive: 9.47 µM [inhibitor, partial curve] | –
COc1ccc(Br)cc1C1Nc2cccc3cccc(c23)N1 | – | inconclusive: -30.2% [inhibitor]

SMILES | Potency | max response, negative = inhibition
COc1cccc(/C=C2\SC(=S)N(C(C)C(=O)NC3C=CS(=O)(=O)C3)C2=O)c1 (stereo not given) | active: 26.7 µM | –
CCOC(=O)c1c(NC(=S)Nc2cccc(C)c2)sc2c1CC(C)(C)SC2 | inconclusive: 11.9 µM [inhibitor, partial curve] | –
Cc1cccc(NC(=S)N2CCN(Cc3ccccc3)CC2)c1C | – | inactive: -3.04%
Cc1cc(C(=O)NNC(=S)NC2CCCCC2)cs1 | – | inactive: -1.82%
S=C1NCCOCCOCCNC(=S)N2CCOCCOCCN1CCOCCOCC2 | inconclusive: 18.9 µM [inhibitor, partial curve] | –
COCCNC(=O)C1(C)Cc2c(-c3ccc4c(c3)OCO4)ccnc2O1 (stereo not given) | – | inactive: 5.26%
COc1ccc(C(=O)Oc2ccc(/C=N/Nc3ccc(Cl)c(C(=O)O)c3)cc2OC)cc1 | inconclusive: 23.8 µM [inhibitor, single point] | –
Cc1cc(C(=O)N/N=C2\CC(=O)CC(C)(C)C2)c(C)n1-c1ccccc1 | – | inactive: -26.2%
COc1ccc(C(C)=O)cc1COC(=O)CNC(=O)c1ccccc1F | – | inconclusive: -33.7% [inhibitor]
COc1ccc(-c2cn(-c3ccc(C)c(Cl)c3)c(=S)[nH]2)cc1OC | active: 26.7 µM | –
CCOc1ccccc1Nc1nc(-c2sc(NC(=O)c3cccc(Cl)c3)nc2C)cs1 | inconclusive: 29.9 µM [inhibitor, single point] | –
CC1CCc2c(sc3nc(SCC(=O)O)n(-c4ccccc4)c(=O)c23)C1 (stereo not given) | inconclusive: 18.9 µM [inhibitor, partial curve] | –
COC(=O)[C@]12CCCCC=C1N(Cc1ccc3c(c1)OCO3)C(=O)[C@H](CC(=O)NCc1cccs1)C2 | – | inactive: -8.01%
C=CCC(c1ccccc1)N(C(C)=O)c1ccco1 (stereo not given) | – | inactive: -22.4%
O=[N+]([O-])c1ccc2nc(Cl)nc(-c3ccccc3)c2c1 | – | inconclusive: -31.7% [inhibitor]
CC(C)COc1ccc(-c2nn(-c3ccccc3)cc2/C=C2/SC(=S)N(CC(=O)O)C2=O)cc1 | active: 21.2 µM | –
Cc1cc(C)nc(SC/C=C/c2ccccc2)n1 | inconclusive: 23.8 µM [inhibitor, partial curve] | –
COCCNC(=O)COC(=O)c1nsc(Cl)c1Cl | active: 26.7 µM | –
O=C(O)Cc1ccc(S(=O)(=O)N2CCCC2)s1 | inconclusive: 26.7 µM [inhibitor, single point] | –
CCN(CC)C(=O)c1ncn(C)c1C(=O)N(CC)CC | inconclusive: 23.8 µM [inhibitor, single point] | –
CN(CC(=O)N1CCc2ccccc21)S(=O)(=O)c1cccc2cccnc12 | inconclusive: 16.8 µM [inhibitor, partial curve] | –
Cc1n[nH]c(=O)c2c(NC(=O)CSc3c(Cl)cccc3Cl)oc(C)c12 | inconclusive: 33.6 µM [inhibitor, partial curve] | –
